Results: publication PMC11923891
Results are given in words; binding and its absence hold for the method and conditions named. Binding seen in cells or lysates may run through a third protein. Some binding calls cover weakened binding; strength is not graded here. Tags and fused reporters may be left off the sequences shown.

T1: Flag-TRIM35 (tripartite motif 35) (UniProt Q9UPQ4)
T1 sequence: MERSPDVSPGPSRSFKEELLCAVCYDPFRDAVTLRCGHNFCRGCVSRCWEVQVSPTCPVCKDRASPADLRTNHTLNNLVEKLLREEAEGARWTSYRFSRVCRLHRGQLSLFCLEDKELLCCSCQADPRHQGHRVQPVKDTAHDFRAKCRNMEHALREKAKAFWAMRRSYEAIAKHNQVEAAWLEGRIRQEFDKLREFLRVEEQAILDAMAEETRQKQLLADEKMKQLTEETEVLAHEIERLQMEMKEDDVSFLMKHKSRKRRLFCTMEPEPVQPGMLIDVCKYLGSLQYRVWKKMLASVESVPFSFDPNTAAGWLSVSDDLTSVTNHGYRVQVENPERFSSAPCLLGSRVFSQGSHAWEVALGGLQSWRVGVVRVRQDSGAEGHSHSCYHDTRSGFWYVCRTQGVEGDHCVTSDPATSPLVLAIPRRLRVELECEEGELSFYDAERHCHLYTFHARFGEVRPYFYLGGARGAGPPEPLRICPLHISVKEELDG

T2: GST-TRIM35 fusion protein (UniProt Q9UPQ4)
T2 sequence: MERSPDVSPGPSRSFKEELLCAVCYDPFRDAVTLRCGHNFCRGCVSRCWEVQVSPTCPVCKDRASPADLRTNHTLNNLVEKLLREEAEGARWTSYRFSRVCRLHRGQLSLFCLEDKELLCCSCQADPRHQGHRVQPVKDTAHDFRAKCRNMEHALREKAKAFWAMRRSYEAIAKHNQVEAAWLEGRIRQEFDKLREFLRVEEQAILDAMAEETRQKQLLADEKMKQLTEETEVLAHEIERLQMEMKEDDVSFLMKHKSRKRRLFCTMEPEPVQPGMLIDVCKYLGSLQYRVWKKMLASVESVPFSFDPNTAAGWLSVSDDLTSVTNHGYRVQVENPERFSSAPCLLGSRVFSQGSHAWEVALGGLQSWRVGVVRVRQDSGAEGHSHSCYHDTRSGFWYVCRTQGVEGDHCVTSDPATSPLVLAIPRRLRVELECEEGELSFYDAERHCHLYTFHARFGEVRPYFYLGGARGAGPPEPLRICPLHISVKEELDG


Legend:
[1] = biological target: T1, Flag-TRIM35 (tripartite motif 35); assay: co-IP; HUVEC transfected with Flag-TRIM35 and HA-RelB; lysates incubated with anti-Flag or anti-HA conjugated magnetic beads overnight at 4 °C; washed with IP lysis buffer (50mM Tris pH 7.5, 150mM NaCl, 1mM EDTA, 0.1% NP-40); Western blotting
[2] = biological target: T2, GST-TRIM35 fusion protein; assay: pull-down; GST pull-down: purified GST-TRIM35 incubated with cell lysate containing His-RelB and GST-beads; the methods say His-RelB from 293FT lysate was enriched on His-tag beads, which were then incubated with recombinant GST-TRIM35 at room temperature for 1 h; immunoblotting; only the target purified

binding [1]	binding [2]	Binder
binds		HA-RelB (protein, UniProt Q01201 1-579) MLRSGPASGPSVPTGRAMPSRRVARPPAAPELGALGSPDLSSLSLAVSRSTDELEIIDEYIKENGFGLDGGQPGPGEGLPRLVSRGAASLSTVTLGPVAPPATPPPWGCPLGRLVSPAPGPGPQPHLVITEQPKQRGMRFRYECEGRSAGSILGESSTEASKTLPAIELRDCGGLREVEVTACLVWKDWPHRVHPHSLVGKDCTDGICRVRLRPHVSPRHSFNNLGIQCVRKKEIEAAIERKIQLGIDPYNAGSLKNHQEVDMNVVRICFQASYRDQQGQMRRMDPVLSEPVYDKKSTNTSELRICRINKESGPCTGGEELYLLCDKVQKEDISVVFSRASWEGRADFSQADVHRQIAIVFKTPPYEDLEIVEPVTVNVFLQRLTDGVCSEPLPFTYLPRDHDSYGVDKKRKRGMPDVLGELNSSDPHGIESKRRKKKPAILDHFLPNHGSGPFLPPSALLPDPDFFSGTVSLPGLEPPGGPDLLDDGFAYDPTAPTLFTMLDLLPPAPPHASAVVCSGGAGAVVGETPGPEPLTLDSYQAPGPGDGGTASLVGSNMFPNHYREAAFGGGLLSPGPEAT
	binds	His-RelB (protein, UniProt Q01201 1-579) MLRSGPASGPSVPTGRAMPSRRVARPPAAPELGALGSPDLSSLSLAVSRSTDELEIIDEYIKENGFGLDGGQPGPGEGLPRLVSRGAASLSTVTLGPVAPPATPPPWGCPLGRLVSPAPGPGPQPHLVITEQPKQRGMRFRYECEGRSAGSILGESSTEASKTLPAIELRDCGGLREVEVTACLVWKDWPHRVHPHSLVGKDCTDGICRVRLRPHVSPRHSFNNLGIQCVRKKEIEAAIERKIQLGIDPYNAGSLKNHQEVDMNVVRICFQASYRDQQGQMRRMDPVLSEPVYDKKSTNTSELRICRINKESGPCTGGEELYLLCDKVQKEDISVVFSRASWEGRADFSQADVHRQIAIVFKTPPYEDLEIVEPVTVNVFLQRLTDGVCSEPLPFTYLPRDHDSYGVDKKRKRGMPDVLGELNSSDPHGIESKRRKKKPAILDHFLPNHGSGPFLPPSALLPDPDFFSGTVSLPGLEPPGGPDLLDDGFAYDPTAPTLFTMLDLLPPAPPHASAVVCSGGAGAVVGETPGPEPLTLDSYQAPGPGDGGTASLVGSNMFPNHYREAAFGGGLLSPGPEAT
